Reference: patent US20110152342A1, “STABILIZED PHARMACEUTICAL COMPOSITION” (priority 2008, published 2011)
Some of these results come from one statement about several compounds together. At least one structure is not confirmed: it was looked up by name or label, or the drawing left a doubt.

Experiment: Critical relative humidity of sugar alcohols determined at 37° C.
Assay type: physicochemical
Details: lowest humidity at which an increase in moisture content is observed after 72 hours
Procedure: As such sugar alcohol, preferably used herein include those having a critical relative humidity as determined at 37° C. of not less than 70% and further preferably used herein are those having a critical relative humidity as determined at 37° C. of not less than 85%. […] For instance, the critical relative humidity can be determined by introducing samples (obtained after drying at 80° C. overnight) of about 1 g each into weighing bottles, placing them in thermo-hygrostats which have been set at the following relative humidity (RH) values: 37° C./40% RH, 37° C./45% RH, 37° C./55% RH, 37° C./65% RH, 37° C./70% RH, 37° C./75% RH, 37° C./80% RH, 37° C./85% RH, 37° C./90% RH, 37° C./95% RH and 37° C./98% RH, respectively (all of the chambers are of the same type: ETAC FX201P), allowing them to stand under such conditions over 72 hours, calculating the increase in the moisture content of each sample at this stage, and determining the lowest humidity at which an increase in the moisture content is observed, the resulting lowest humidity being defined to be the critical relative humidity of the sugar alcohol thus tested. […] The examples of such sugar alcohols having a critical relative humidity, as determined at 37° C., of not less than 70% are erythritol, xylitol, mannitol, maltitol, lactitol, and the like. […]

SMILES | critical relative humidity
OC[C@@H](O)[C@@H](O[C@@H]1O[C@H](CO)[C@H](O)[C@H](O)[C@H]1O)[C@H](O)[C@@H](O)CO [lactitol] | not less than 70%
OC[C@@H](O)[C@@H](O[C@H]1O[C@H](CO)[C@@H](O)[C@H](O)[C@H]1O)[C@H](O)[C@@H](O)CO [maltitol] | not less than 70%
